Compound in this test: CC1Cc2ccccc2N1C(=O)C1CCCN(C1)C(=O)CCl (mixture of isomers) [TRIM25 ligand 11 (diastereomer mixture)]
Put plainly: probe-labelled cysteine peptide fold change vs DMSO (competition) (log2 fold change); higher = less target engagement (more negative = stronger competition). The settings on record: THP-1, incubation time: 4 h.

Chains of the proteins cited; added tags and fusions are not shown. Lines headed by an entry give the natural chain unless they say otherwise; changes in a name come on top.
UniProt P07996: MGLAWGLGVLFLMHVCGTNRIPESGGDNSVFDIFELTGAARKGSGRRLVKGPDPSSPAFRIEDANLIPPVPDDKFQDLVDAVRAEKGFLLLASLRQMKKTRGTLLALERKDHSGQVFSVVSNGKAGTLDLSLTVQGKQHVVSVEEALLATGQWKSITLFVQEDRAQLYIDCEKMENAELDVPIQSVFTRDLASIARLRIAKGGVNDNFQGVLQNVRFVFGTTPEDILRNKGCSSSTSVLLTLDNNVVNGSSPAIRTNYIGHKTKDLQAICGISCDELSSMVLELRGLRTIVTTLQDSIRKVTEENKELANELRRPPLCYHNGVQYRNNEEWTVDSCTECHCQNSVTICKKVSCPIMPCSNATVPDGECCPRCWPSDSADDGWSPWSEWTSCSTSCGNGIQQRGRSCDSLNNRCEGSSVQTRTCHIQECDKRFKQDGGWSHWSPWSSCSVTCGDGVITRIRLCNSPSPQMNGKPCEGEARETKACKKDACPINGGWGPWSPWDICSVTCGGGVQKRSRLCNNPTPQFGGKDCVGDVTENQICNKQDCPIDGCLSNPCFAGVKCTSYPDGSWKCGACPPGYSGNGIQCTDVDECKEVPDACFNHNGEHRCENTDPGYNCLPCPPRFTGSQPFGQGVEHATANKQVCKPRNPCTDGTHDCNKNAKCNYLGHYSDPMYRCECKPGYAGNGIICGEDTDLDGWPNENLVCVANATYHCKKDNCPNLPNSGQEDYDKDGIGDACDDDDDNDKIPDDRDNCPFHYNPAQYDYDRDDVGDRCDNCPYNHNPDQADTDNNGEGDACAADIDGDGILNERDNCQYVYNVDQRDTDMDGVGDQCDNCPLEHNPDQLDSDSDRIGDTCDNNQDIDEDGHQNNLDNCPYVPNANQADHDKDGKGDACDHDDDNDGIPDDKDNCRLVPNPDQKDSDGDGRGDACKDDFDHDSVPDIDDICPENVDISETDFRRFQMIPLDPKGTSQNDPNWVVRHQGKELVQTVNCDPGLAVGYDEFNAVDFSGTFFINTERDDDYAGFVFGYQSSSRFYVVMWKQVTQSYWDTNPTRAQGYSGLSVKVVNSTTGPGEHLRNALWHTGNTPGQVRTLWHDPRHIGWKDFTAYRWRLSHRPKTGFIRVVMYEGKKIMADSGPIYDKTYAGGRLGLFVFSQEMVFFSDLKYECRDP
UniProt P29401: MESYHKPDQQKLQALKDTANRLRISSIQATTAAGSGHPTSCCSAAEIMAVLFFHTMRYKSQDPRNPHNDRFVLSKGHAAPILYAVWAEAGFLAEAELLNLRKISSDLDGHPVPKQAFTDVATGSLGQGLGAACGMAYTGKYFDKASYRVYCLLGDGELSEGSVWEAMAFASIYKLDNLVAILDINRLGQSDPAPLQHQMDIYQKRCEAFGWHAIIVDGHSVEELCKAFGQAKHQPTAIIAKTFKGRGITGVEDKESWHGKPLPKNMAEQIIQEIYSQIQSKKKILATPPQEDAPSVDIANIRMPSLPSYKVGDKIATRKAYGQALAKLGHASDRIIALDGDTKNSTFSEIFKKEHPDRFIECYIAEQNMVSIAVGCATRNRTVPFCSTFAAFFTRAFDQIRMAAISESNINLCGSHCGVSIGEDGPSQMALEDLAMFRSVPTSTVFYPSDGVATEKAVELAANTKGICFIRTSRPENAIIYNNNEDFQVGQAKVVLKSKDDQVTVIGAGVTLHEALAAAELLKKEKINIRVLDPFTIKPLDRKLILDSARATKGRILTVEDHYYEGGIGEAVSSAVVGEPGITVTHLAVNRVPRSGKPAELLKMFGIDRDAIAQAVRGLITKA
UniProt Q6I9Y2: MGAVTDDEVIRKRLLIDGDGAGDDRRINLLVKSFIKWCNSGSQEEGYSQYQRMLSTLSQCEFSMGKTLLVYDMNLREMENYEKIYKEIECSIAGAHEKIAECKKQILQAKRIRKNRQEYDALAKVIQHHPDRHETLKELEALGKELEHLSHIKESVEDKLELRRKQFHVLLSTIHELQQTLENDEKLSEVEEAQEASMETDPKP
UniProt P04183: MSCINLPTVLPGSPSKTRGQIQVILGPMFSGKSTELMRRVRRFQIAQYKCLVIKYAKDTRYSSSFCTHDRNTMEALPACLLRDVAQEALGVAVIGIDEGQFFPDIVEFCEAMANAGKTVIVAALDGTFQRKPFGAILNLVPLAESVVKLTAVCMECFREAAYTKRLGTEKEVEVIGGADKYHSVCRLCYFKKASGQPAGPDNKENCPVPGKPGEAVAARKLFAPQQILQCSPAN
UniProt O95551: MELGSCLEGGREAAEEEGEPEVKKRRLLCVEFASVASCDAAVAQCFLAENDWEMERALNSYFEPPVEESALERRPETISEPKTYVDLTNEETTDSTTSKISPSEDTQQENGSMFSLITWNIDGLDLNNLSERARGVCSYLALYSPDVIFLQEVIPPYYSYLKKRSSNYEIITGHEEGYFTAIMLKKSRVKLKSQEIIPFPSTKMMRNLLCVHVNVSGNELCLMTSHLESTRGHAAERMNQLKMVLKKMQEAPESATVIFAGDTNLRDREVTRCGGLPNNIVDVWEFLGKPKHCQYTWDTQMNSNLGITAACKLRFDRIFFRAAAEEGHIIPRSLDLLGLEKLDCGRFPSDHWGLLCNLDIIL
UniProt P52888, whole entry, looked up: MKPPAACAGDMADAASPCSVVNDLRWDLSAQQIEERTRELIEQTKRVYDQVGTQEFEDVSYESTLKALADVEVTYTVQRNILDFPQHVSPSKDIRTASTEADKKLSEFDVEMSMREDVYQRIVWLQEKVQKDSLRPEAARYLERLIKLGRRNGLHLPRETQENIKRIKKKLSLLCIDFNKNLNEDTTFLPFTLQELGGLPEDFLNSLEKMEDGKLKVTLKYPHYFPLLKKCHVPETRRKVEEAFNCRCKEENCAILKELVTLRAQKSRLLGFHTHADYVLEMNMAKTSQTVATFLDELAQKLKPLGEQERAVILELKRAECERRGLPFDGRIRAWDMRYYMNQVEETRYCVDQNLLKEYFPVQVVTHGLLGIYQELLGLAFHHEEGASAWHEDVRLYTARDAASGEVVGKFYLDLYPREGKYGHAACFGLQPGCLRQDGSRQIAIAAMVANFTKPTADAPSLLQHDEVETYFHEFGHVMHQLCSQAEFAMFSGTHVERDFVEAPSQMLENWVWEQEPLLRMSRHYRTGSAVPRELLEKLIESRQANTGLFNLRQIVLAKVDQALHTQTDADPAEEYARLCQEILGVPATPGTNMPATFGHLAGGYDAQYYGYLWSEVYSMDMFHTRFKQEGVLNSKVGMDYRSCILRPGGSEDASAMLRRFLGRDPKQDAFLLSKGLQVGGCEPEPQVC
UniProt Q9UGI8: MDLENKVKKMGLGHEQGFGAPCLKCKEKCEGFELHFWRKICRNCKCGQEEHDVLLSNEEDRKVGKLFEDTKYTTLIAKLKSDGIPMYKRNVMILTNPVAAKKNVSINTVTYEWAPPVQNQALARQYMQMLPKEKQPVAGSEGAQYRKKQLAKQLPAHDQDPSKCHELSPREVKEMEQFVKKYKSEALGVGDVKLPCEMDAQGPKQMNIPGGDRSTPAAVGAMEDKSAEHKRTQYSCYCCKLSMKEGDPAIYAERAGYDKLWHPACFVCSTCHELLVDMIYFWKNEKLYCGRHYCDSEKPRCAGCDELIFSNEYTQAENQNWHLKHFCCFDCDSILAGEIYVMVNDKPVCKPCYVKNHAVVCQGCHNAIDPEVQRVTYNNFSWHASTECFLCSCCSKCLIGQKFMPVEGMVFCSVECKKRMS
UniProt Q8NHU6: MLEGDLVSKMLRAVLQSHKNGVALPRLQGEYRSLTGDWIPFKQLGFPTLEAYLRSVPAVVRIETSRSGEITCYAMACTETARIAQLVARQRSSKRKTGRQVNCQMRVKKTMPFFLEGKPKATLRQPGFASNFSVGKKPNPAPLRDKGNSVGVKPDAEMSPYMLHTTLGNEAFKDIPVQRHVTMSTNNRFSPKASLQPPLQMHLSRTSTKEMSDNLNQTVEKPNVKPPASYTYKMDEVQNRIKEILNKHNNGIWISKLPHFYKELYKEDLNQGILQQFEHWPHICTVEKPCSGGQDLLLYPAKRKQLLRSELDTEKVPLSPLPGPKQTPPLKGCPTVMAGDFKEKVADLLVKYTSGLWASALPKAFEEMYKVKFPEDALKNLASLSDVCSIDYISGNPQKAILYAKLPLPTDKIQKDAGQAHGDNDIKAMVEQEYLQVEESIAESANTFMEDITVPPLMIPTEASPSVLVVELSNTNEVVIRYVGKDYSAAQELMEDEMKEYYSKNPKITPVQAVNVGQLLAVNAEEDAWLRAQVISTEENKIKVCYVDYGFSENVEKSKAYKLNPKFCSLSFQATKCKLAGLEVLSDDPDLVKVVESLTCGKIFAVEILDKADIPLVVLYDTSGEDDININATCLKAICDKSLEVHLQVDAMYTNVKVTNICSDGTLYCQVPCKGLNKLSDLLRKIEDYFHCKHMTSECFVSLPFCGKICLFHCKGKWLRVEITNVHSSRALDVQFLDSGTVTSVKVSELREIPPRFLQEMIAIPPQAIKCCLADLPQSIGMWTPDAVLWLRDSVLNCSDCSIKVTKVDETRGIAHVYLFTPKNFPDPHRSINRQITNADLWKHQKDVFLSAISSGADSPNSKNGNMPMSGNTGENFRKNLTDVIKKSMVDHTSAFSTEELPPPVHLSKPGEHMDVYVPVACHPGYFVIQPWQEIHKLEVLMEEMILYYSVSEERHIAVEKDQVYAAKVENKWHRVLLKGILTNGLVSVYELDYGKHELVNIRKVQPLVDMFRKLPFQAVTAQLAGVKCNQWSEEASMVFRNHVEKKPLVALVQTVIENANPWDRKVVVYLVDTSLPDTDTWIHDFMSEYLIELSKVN
UniProt Q8WUH2: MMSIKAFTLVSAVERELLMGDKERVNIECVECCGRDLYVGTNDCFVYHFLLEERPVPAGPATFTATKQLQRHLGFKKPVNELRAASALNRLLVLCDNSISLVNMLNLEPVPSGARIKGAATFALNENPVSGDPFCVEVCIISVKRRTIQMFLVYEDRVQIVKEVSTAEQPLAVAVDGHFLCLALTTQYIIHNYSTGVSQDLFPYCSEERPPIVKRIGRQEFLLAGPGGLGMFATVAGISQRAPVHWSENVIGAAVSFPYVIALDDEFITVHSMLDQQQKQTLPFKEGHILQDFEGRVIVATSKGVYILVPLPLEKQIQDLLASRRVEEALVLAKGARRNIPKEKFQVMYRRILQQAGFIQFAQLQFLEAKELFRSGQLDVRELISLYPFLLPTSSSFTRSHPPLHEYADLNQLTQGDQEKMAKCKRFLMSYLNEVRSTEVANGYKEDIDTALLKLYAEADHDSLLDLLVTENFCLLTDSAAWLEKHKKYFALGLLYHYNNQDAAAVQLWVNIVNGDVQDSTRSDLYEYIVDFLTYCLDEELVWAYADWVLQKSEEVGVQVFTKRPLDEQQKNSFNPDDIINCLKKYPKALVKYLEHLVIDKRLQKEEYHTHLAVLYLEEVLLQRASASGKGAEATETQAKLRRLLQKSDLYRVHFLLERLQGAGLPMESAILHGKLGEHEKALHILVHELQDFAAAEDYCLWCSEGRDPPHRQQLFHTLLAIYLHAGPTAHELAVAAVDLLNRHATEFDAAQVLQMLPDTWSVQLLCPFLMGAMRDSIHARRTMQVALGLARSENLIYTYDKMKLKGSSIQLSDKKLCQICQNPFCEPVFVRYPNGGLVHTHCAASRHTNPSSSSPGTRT
UniProt Q96J01: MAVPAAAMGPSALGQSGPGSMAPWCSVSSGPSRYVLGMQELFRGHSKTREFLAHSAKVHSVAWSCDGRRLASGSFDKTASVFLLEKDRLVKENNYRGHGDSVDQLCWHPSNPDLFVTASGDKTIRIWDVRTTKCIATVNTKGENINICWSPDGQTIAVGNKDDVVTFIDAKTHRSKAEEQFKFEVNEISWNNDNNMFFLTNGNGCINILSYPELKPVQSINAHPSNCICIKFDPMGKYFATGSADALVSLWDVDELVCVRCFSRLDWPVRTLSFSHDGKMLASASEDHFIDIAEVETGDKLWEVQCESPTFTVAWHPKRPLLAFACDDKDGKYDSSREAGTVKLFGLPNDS
UniProt Q96N21: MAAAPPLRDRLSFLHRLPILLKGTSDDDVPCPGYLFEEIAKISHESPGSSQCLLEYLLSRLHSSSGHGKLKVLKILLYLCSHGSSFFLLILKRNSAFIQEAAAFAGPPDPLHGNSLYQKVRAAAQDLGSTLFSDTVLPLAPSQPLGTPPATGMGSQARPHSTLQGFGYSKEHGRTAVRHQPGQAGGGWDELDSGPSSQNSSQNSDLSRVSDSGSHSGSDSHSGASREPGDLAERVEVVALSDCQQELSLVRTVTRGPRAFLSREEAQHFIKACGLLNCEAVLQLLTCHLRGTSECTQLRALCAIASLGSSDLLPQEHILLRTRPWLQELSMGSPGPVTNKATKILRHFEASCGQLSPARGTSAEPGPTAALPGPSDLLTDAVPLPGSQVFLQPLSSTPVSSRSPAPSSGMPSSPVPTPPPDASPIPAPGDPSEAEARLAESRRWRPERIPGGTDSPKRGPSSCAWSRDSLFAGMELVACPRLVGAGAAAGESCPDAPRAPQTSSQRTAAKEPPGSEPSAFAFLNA

The list shows a part of the results.
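Note: competitive chemoproteomic profiling in live THP-1 cells with an iodoacetamide desthiobiotin (IA-DTB) probe, comparing probe-labelled peptide intensities in compound-treated cells against DMSO-treated controls.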

As for “THOC2_Q8NI27_743_DALLDHDLALPLCLLMAQQR (UniProt Q8NI27)”, the “probe-labelled cysteine peptide fold change” value (10 µM) was 0.0629. Turning to “THBS1_P07996_318_RPPLCYHNGVQYR (UniProt P07996)”, the “probe-labelled cysteine peptide fold change” value is 0.286 (10 µM) and 0.202 (50 µM).

In the case of “TKT_P29401_206_RCEAFGWHAIIVDGHSVEELCK (UniProt P29401)”, the “probe-labelled cysteine peptide fold change” value by setting is: (10 µM) -0.1; (50 µM) -0.026. The matching figures for “TKT_P29401_206+225_CEAFGWHAIIVDGHSVEELCK (UniProt P29401)”: 0.0902 and -0.0357.

For “TELO2_Q9Y4R8_30_EAIHALSSSEDGGHIFCTLESLK (UniProt Q9Y4R8)”, the “probe-labelled cysteine peptide fold change” value is 0.156 (10 µM) and -0.175 (50 µM). For “THOC7_Q6I9Y2_90_EIECSIAGAHEK (UniProt Q6I9Y2)”, the “probe-labelled cysteine peptide fold change” value is -0.00626 (10 µM) and -0.143 (50 µM).

As for “TIMM9_Q9Y5J7_52_EVKPEETTCSEHCLQK (UniProt Q9Y5J7)”, the “probe-labelled cysteine peptide fold change” value by setting is: (10 µM) 0.0866; (50 µM) -0.0147. “TK1_P04183_156_LTAVCMECFR (UniProt P04183)”: the “probe-labelled cysteine peptide fold change” value reads like this: (10 µM) -0.0458; (50 µM) 0.364. Regarding “TDP2_O95551_273_CGGLPNNIVDVWEFLGK (UniProt O95551)”, the “probe-labelled cysteine peptide fold change” value reads like this: (10 µM) 0.029; (50 µM) 0.0122. For the target “THOP1_P52888_434_YGHAACFGLQPGCLR (UniProt P52888)”, the “probe-labelled cysteine peptide fold change” value is, setting by setting: (10 µM) 0.0959; (50 µM) 0.124. As for “TKFC_Q3LXA3_404_AAGDGDCGTTHSR (UniProt Q3LXA3)”, the “probe-labelled cysteine peptide fold change” value reads like this: (10 µM) 0.435; (50 µM) -0.00367. Regarding “TES_Q9UGI8_364_NHAVVCQGCHNAIDPEVQR (UniProt Q9UGI8)”, the “probe-labelled cysteine peptide fold change” value is 0.115 (10 µM) and 0.0556 (50 µM). On to “THUMPD3_Q9BV44_2_CDIEEATNQLLDVNLHENQK (UniProt Q9BV44)”, for which the “probe-labelled cysteine peptide fold change” value is -0.0426 (10 µM) and -0.137 (50 µM). On to “TDRD7_Q8NHU6_290_PCSGGQDLLLYPAK (UniProt Q8NHU6)”, for which the “probe-labelled cysteine peptide fold change” value (10 µM) is -0.0959 and the “probe-labelled cysteine peptide fold change” value (50 µM) was -0.0814. For the target “TES_Q9UGI8_196_SEALGVGDVKLPCEMDAQGPK (UniProt Q9UGI8)”, the “probe-labelled cysteine peptide fold change” value is -0.416 (10 µM) and -0.379 (50 µM).

Consider “THAP12_O43422_230_FETTAVNTLFCSK (UniProt O43422)”, for which the “probe-labelled cysteine peptide fold change” value (10 µM) worked out at 0.0202 and the “probe-labelled cysteine peptide fold change” value (50 µM) worked out at 0.187. For the target “THOC6_Q86W42_214_HEECSRPHNGR (UniProt Q86W42)”, the “probe-labelled cysteine peptide fold change” value was 0.174 (10 µM) and 0.17 (50 µM). “THOP1_P52888_253_EENCAILK (UniProt P52888)”: the “probe-labelled cysteine peptide fold change” value reads like this: (10 µM) 0.258; (50 µM) 0.483. Take “TCF20_Q9UGU0_1163_CLMSSDGLPNK (UniProt Q9UGU0)”: the “probe-labelled cysteine peptide fold change” value runs as follows: (10 µM) -0.0779; (50 µM) -0.48. As for “TEX2_Q8IWB9_1030_KIEEVSNTPLLLTVEVQECR (UniProt Q8IWB9)”, the “probe-labelled cysteine peptide fold change” value is -0.0986 (10 µM) and 0.155 (50 µM). In the case of “THOP1_P52888_350_YCVDQNLLK (UniProt P52888)”, the “probe-labelled cysteine peptide fold change” value was found to be 0.169 (10 µM) and 0.0378 (50 µM).

On to “TGFBRAP1_Q8WUH2_32_VNIECVECCGR (UniProt Q8WUH2)”, for which the “probe-labelled cysteine peptide fold change” value (10 µM) was -0.0319.

With “TENT2_Q6PIY7_374_IYPESFSPAIQLHLVHQAPCNVPPYLSK (UniProt Q6PIY7)”, the “probe-labelled cysteine peptide fold change” value reads like this: (10 µM) 0.113; (50 µM) -0.0699. For the target “TK1_P04183_79_NTMEALPACLLR (UniProt P04183)”, the “probe-labelled cysteine peptide fold change” value (10 µM) is -0.00122 and the “probe-labelled cysteine peptide fold change” value (50 µM) worked out at 0.064. With “THBS1_P07996_754_IPDDRDNCPFHYNPAQYDYDRDDVGDR (UniProt P07996)”, the “probe-labelled cysteine peptide fold change” value (10 µM) worked out at 0.813. Take “TICRR_Q7Z2Z1_160_EAEAALGGLVNAVFLLAPCPHSQR (UniProt Q7Z2Z1)”: the “probe-labelled cysteine peptide fold change” value was -0.414 (10 µM) and -0.15 (50 µM). Turning to “TGFB1I1_O43294_431_FHPDHFTCTFCLRPLTK (UniProt O43294)”, the “probe-labelled cysteine peptide fold change” value amounted to 0.0316 (10 µM) and 0.0378 (50 µM). As to “THOC3_Q96J01_106_GHGDSVDQLCWHPSNPDLFVTASGDK (UniProt Q96J01)”, the “probe-labelled cysteine peptide fold change” value by setting is: (10 µM) -0.016; (50 µM) -0.235. “TET3_O43151_1381_GKPWSPCK (UniProt O43151)”: the “probe-labelled cysteine peptide fold change” value (10 µM) is -0.294. Turning to “TES_Q9UGI8_22_MGLGHEQGFGAPCLK (UniProt Q9UGI8)”, for the setting “50 µM”, the “probe-labelled cysteine peptide fold change” value was -0.176. “TET2_Q6N021_784_VEECFHGENQYSK (UniProt Q6N021)”: the “probe-labelled cysteine peptide fold change” value by setting is: (10 µM) -0.0239; (50 µM) -0.151.

For “TEPSIN_Q96N21_479_DSLFAGMELVACPR (UniProt Q96N21)”, the “probe-labelled cysteine peptide fold change” value runs as follows: (10 µM) 0.22; (50 µM) -0.145. As for “TEX264_Q9Y6I9_165_KLCAYPR (UniProt Q9Y6I9)”, the “probe-labelled cysteine peptide fold change” value by setting is: (10 µM) -0.137; (50 µM) 0.0043. Take “TDRD7_Q8NHU6_284_EDLNQGILQQFEHWPHICTVEK (UniProt Q8NHU6)”: for the setting “10 µM”, the “probe-labelled cysteine peptide fold change” value amounted to 0.0148. With “TKFC_Q3LXA3_24_KLVNSVAGCADDALAGLVACNPNLQLLQGHR (UniProt Q3LXA3)”, the “probe-labelled cysteine peptide fold change” value by setting is: (10 µM) -0.238; (50 µM) -0.093. Regarding “TIAL1_Q01085_205+209_NCTVYCGGIASGLTDQLMR (UniProt Q01085)”, for the setting “10 µM”, the “probe-labelled cysteine peptide fold change” value was 0.161.

As to “THBS1_P07996_171_AQLYIDCEK (UniProt P07996)”, the “probe-labelled cysteine peptide fold change” value was 0.482 (10 µM) and 0.376 (50 µM). The matching figures for “THOC3_Q96J01_326_RPLLAFACDDK (UniProt Q96J01)”: 0.0985 and -0.09.

For “THBS1_P07996_718_KDNCPNLPNSGQEDYDK (UniProt P07996)”, the “probe-labelled cysteine peptide fold change” value worked out at 0.375 (10 µM) and 0.118 (50 µM).

In the case of “TK1_P04183_66_YSSSFCTHDR (UniProt P04183)”, the “probe-labelled cysteine peptide fold change” value (10 µM) was -0.0302 and the “probe-labelled cysteine peptide fold change” value (50 µM) came to 0.141.

Regarding “TGFBR1_P36897_461_LRPNIPNRWQSCEALR (UniProt P36897)”, the “probe-labelled cysteine peptide fold change” value stood at 0.0229 (10 µM) and 0.109 (50 µM). The matching figures for “THBS1_P07996_599_EVPDACFNHNGEHR (UniProt P07996)”: 0.515 and 0.181. For “TK1_P04183_206_ENCPVPGKPGEAVAAR (UniProt P04183)”, the “probe-labelled cysteine peptide fold change” value runs as follows: (10 µM) -0.0318; (50 µM) -0.0913. Regarding “TDP1_Q9NUW8_413_WLCSEFK (UniProt Q9NUW8)”, the “probe-labelled cysteine peptide fold change” value reads like this: (10 µM) -0.0257; (50 µM) -0.0582.

(Values after the supplement of paper PMC12067093, “Discovery and optimisation of a covalent ligand for TRIM25 and its application to targeted protein ubiquitination” (Chemical Science, 2025).)
